Measurements reported in PubChem BioAssay AID588590 (National Center for Advancing Translational Sciences (NCATS), 2011).
Out of some 390,000 compounds screened, about 4,000 (1%) were called active. Inconclusive means that the source gave no clear call. Such entries were picked first, then a sample of the others. Calls follow the shape of the dose curve; as a rule, active = well fitted inhibition curve with a large enough effect; inconclusive = small, poorly fitted or top-dose-only effect, or another doubt; inactive = no such curve, though single readings can be large or run the other way. A potency beside an inconclusive call is a rough fit, not a confirmed value.

By UniProt entry, the sequences of proteins in these tests, tags left out. Where a name states a change or a piece, a line headed by the entry shows the natural chain unless it says otherwise.
UniProt Q9UNA4: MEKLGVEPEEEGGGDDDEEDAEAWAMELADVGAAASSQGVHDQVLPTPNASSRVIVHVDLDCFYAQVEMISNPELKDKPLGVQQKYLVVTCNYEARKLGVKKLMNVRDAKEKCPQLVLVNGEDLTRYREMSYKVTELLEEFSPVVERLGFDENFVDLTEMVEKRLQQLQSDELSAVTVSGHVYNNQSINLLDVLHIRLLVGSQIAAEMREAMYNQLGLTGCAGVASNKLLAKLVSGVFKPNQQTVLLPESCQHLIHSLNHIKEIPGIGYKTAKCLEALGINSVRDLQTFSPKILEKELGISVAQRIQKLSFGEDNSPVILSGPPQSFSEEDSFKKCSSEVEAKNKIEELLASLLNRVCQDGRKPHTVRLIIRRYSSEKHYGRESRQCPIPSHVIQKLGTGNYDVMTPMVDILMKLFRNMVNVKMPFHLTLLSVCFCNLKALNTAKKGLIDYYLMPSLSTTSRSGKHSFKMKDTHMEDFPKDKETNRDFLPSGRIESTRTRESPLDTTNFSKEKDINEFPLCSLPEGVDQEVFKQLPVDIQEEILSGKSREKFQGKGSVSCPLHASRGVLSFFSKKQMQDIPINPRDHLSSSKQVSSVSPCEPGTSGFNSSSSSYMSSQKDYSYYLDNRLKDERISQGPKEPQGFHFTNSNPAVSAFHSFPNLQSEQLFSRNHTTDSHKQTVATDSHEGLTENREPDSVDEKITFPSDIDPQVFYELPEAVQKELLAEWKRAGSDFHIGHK

Each compound was assayed against DNA polymerase iota (Homo sapiens) (UniProt Q9UNA4) (assay: qHTS for Inhibitors of Polymerase Iota). Conditions: Pol iota fluorescent replication assay, 10 min; series mostly up to 115 µM.
Method in brief: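 Fluorescent replication assay read twice, at 0 min and 10 min after adding 50 nM (final) substrate. Enzyme (10 nM) and compounds were first incubated 15 min at room temperature; enzyme-free buffer wells were negative controls.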
Potency is read from the fitted curve at half-maximal effect.

| Compound | Potency |
| --- | --- |
| CC(C)CCOc1ccc(C(=O)Nc2sc3c(c2C#N)CCCCC3)cc1 | inactive |
| CN(C)/C=C/C(=O)c1ccc(Br)s1 | inconclusive: 79.4 µM [inhibitor, partial curve] |
| O=C(O)C1C2C=CC(C2)C1C(=O)NCc1ccccc1F (stereo not given) | inactive |
| COc1cc(/C=C/c2cc(C(F)(F)F)[nH]c(=O)n2)cc(OC)c1OC | inconclusive: 44.7 µM [inhibitor, partial curve] |
| O=C(Cc1cccs1)Nc1nnc(-c2ccncc2)s1 | active: 63.1 µM |
| CC(=O)c1ccc(S(=O)(=O)Nc2cccc(-c3ccc(N4CCCCC4)nn3)c2)cc1 | inconclusive: 100 µM [inhibitor, partial curve, poor fit] |
| CCN1CCCC1CNC(=O)C1c2ccccc2C(=O)N(CCOC)C1c1ccc(F)cc1 (stereo not given) | inconclusive: 112 µM [inhibitor, single point] |
| COc1ccccc1CNC(=O)c1cc(-c2ccccc2)nn1CC1CC(c2cccc([N+](=O)[O-])c2)=NO1 (stereo not given) | inconclusive: 11.2 µM [inhibitor, partial curve, poor fit] |
| COc1cc(CCC(=O)Nc2c(C(=O)N3CCN(c4ccccc4OC)CC3)oc3ccccc23)on1 | inconclusive: 89.1 µM [inhibitor, single point] |
| Cn1c(CCNC(=O)c2ccco2)nc2ccccc21 | inactive |
| Cc1[nH]n(-c2ccccc2)c(=O)c1N=Nc1cccc(S(=O)(=O)N2CCOCC2)c1 | inconclusive: 17.8 µM [inhibitor, partial curve, poor fit] |
| O=C(c1ccccc1Sc1cccc2ccccc12)N1CCOCC1 | inconclusive: 20 µM [inhibitor, single point] |
| N#CCOc1ccccc1P(=O)(c1ccccc1)c1ccccc1 | inconclusive: 89.1 µM [inhibitor, partial curve, poor fit] |
| CCc1ccc(OC2=NS(=O)(=O)c3ccccc32)cc1 | inconclusive: 56.2 µM [inhibitor, partial curve, poor fit] |
| Cc1ccc(C(=O)O)cc1Nc1nc2ccccc2n2nnnc12 | inactive |
| COc1ccc(-c2cc3nc4n(c(=O)c3s2)CCC4)cc1 | inactive |
| Cc1cccc(NC(=O)CSc2nc(-c3ccco3)nc3cc(=O)[nH]n23)c1 | inconclusive: 89.1 µM [inhibitor, single point] |
| COc1cc(NC(=O)c2ccccc2)ccc1NC(=O)c1cc2ccccc2o1 | inactive |
| Cc1ccc(CNS(=O)(=O)c2ccc(C)s2)cc1 | inactive |
| O=[N+]([O-])c1ccc(N/N=C/c2ccccc2O)cc1 | inconclusive: 11.2 µM [inhibitor, full curve, poor fit] |

Copied from above, 2 compounds:

| Compound | Potency |
| --- | --- |
| CC(C)CCOc1ccc(C(=O)Nc2sc3c(c2C#N)CCCCC3)cc1 | inactive |
| CN(C)/C=C/C(=O)c1ccc(Br)s1 | inconclusive: 79.4 µM [inhibitor, partial curve] |
